The labels stand for the following.
B1: tRNA (parent)
chain: GUUCCGUUGGCGUAAUGGUAACGCGUCUCCCUCCUAAGGAGAAGACUGCGGGUUCGAGUCCCGUACGGAACG

Variants at the floor of the assay are shown more often than the library holds them. Where only a bound is given, the exact number is not on record here.

The data set covers variants of B1. As to the kind of experiment: yeast fitness relative to wild type (ratio to wild type); higher = fitter; tRNA-Arg(CCU), competitive growth, 37 C, YPD. The method, boiled down:
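For this measurement, the tRNA-Arg(CCU) gene was varied by chemical synthesis at a 3% per-site mutation rate across 69 sites, and each variant was placed at the native genomic locus in Saccharomyces cerevisiae. The pooled strains went through a 24-hour competition in YPD at 37°C in six parallel replicates, with amplicons from start and end populations read by 100-nucleotide paired-end sequencing. Darwinian fitness relative to wild type followed from the change in each genotype's frequency. Genotypes needed ≥ 100 starting reads, and estimates < 0.5 were set to 0.5.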
On to U8A C30A A37G C66U A70C, for which the yeast fitness was ≤ 0.5.

Take U3A C5G U13G G39C A70C: the yeast fitness is ≤ 0.5.

For A15C A37U A43G G56A G67C, the yeast fitness is ≤ 0.5.

Consider U13A A45G G58C A69U A70U, for which the yeast fitness came to 0.603.

U7C C24A: the yeast fitness amounted to 0.623.

As to C5G C27G C46U C60A C66G G68C, the yeast fitness was ≤ 0.5.

Consider U47A G51A C55U, for which the yeast fitness stood at 0.642.

For C4G A14C U26C, the yeast fitness was ≤ 0.5.

Consider A14U G39C C55G C62A, for which the yeast fitness was ≤ 0.5.

Consider C4A A36U G68C, for which the yeast fitness is ≤ 0.5.

As for G18A G50A G68C, the yeast fitness was ≤ 0.5.

Turning to C5U G48A C55U, the yeast fitness was 0.558.

For G10C G18A C27G G63C, the yeast fitness was ≤ 0.5.

Consider C4U G10C A14C A37C A45C, for which the yeast fitness is ≤ 0.5.

For the variant G48A C55A G56U G58C, the yeast fitness was ≤ 0.5.

Consider A14U U16G U19A A42G A70U, for which the yeast fitness is ≤ 0.5.

For A14G U16C G18A C27G, the yeast fitness was ≤ 0.5.

Regarding U7C A15G G68C, the yeast fitness is ≤ 0.5.

With G17A A21C C30A A40G A45G, the yeast fitness is ≤ 0.5.

For the variant U8G G18C, the yeast fitness is ≤ 0.5.

Consider A20U G56C A65C, for which the yeast fitness is ≤ 0.5.

Take C11A C31U C46A A70G: the yeast fitness is ≤ 0.5.

Consider G9C A20G U35C A36G, for which the yeast fitness is ≤ 0.5.

As to C27U C33U A36U C66A, the yeast fitness is ≤ 0.5.

Take A14G C61A G67A: the yeast fitness is ≤ 0.5.

For the variant C33G C62A G68C, the yeast fitness is ≤ 0.5.

As for A20G C62U, the yeast fitness was 1.05.

In the case of U2A C5G A14G C30G, the yeast fitness is ≤ 0.5.

Regarding A14C C34U G39C C55U G56C, the yeast fitness was ≤ 0.5.

C24G C27U G58C A69U: the yeast fitness is ≤ 0.5.

On to U2G C24G C29G C31G U64C, for which the yeast fitness was ≤ 0.5.

Take C4U U16G C66G: the yeast fitness was ≤ 0.5.

As for U16A A21U C24A G52A, the yeast fitness is ≤ 0.5.

U2C U8G A14U G51C A70G: the yeast fitness was ≤ 0.5.

Take C4G G23A C34G G67A: the yeast fitness was ≤ 0.5.

As for C11G A15C A37U G68C, the yeast fitness is ≤ 0.5.

On to C5A G17A C46A C55A, for which the yeast fitness was ≤ 0.5.

In the case of C4A C30U A70U, the yeast fitness was ≤ 0.5.

Take G41A A42C: the yeast fitness was found to be 0.726.

As to G23A C55U A69U, the yeast fitness is ≤ 0.5.

With U2C G56C, the yeast fitness was 0.727.

In the case of A21U C30G U53A, the yeast fitness was ≤ 0.5.

As to C11G A42U C49U C62U, the yeast fitness is ≤ 0.5.

For the variant U13C C66G A70U, the yeast fitness was ≤ 0.5.

Turning to C11A C27U A70U, the yeast fitness was ≤ 0.5.

Consider U2A C11G A36G G39C, for which the yeast fitness was ≤ 0.5.

Consider C11U C24U C34U C46U, for which the yeast fitness was ≤ 0.5.

For the variant U7A U47A G58A, the yeast fitness was ≤ 0.5.

In the case of G6A U59C C66G, the yeast fitness was ≤ 0.5.

C5U G63A C66G: the yeast fitness was ≤ 0.5.

In the case of G9A C11A A14C U16A C31A, the yeast fitness is ≤ 0.5.

Take C11G A20G U32A C62U: the yeast fitness is ≤ 0.5.

For the variant C5G G9C C60G A69U, the yeast fitness was ≤ 0.5.

Consider C27U C29G A42C A43G A57C, for which the yeast fitness was ≤ 0.5.

On to C31G C34U U54C, for which the yeast fitness was ≤ 0.5.

As for G6C G17A C29A C34G C55A, the yeast fitness is ≤ 0.5.

For A20C C30U A42G, the yeast fitness is ≤ 0.5.

For the variant A14C G25C U64A, the yeast fitness was ≤ 0.5.

For the variant C11G C49A A57U U64A G67U, the yeast fitness was ≤ 0.5.

With U3G A14U U19A, the yeast fitness was ≤ 0.5.

For the variant U2A G12A A21C C29U A57C, the yeast fitness is ≤ 0.5.

Take U32G A37C C62U A65G: the yeast fitness was ≤ 0.5.

Take C4U U32C C34U G38A C66A A69U: the yeast fitness was ≤ 0.5.

In the case of G10C C11U C22G U53G, the yeast fitness was ≤ 0.5.

Consider G10C U13C A21G A40G, for which the yeast fitness was ≤ 0.5.

Consider C34G C55U G63A, for which the yeast fitness is ≤ 0.5.

Take U19C G25A G44C U47A: the yeast fitness was ≤ 0.5.

U3C A43C: the yeast fitness worked out at 1.04.

Turning to U7A C29U A57C G68U A69U, the yeast fitness was ≤ 0.5.

Take A42C G50C G68U: the yeast fitness is ≤ 0.5.

For the variant U8C C11A C61U, the yeast fitness was ≤ 0.5.

In the case of C24U A36G A45C A57U C61G, the yeast fitness is ≤ 0.5.

A20U A40U C55U A65C A70G: the yeast fitness was ≤ 0.5.

As to U16A C61G G63C, the yeast fitness was ≤ 0.5.

Turning to U2A U13G A40C G41C C60G C66G A69G, the yeast fitness was ≤ 0.5.

As to C5U A45U G67U A69G, the yeast fitness was ≤ 0.5.

With C4A C5U C24G, the yeast fitness is ≤ 0.5.

On to C31U U32C C33U, for which the yeast fitness was 0.667.

As to A40C G50A C55A G58A, the yeast fitness was ≤ 0.5.

On to U7C C11U A36C A57U C61A C66G, for which the yeast fitness was ≤ 0.5.

Consider A21U U32A A70G, for which the yeast fitness is ≤ 0.5.

Consider C5A G12A G18A C27G C46G A65G, for which the yeast fitness is ≤ 0.5.

As to U3C C11A C31G G68C, the yeast fitness is ≤ 0.5.

Consider A14G C29G C33U U47C U59C, for which the yeast fitness is ≤ 0.5.

With U8A C29U C33U A69C, the yeast fitness is ≤ 0.5.

Turning to C31U U35C A40G A65U, the yeast fitness was ≤ 0.5.

With C27A U35A G48A U59C, the yeast fitness came out at 0.567.

On to U3A G25A A43U G56A G68C, for which the yeast fitness is ≤ 0.5.

For the variant C5U U16A A20U C24G C33G C61A G67C, the yeast fitness is ≤ 0.5.

As for A21G C49A G56A, the yeast fitness worked out at 0.533.

Regarding C33G C34U U54A C66U, the yeast fitness is ≤ 0.5.

For the variant U28C C29U A57G A65G, the yeast fitness is ≤ 0.5.

Turning to G12A A20G U35C A36G A37G, the yeast fitness was ≤ 0.5.

With U2C A15C A36U A65C, the yeast fitness is ≤ 0.5.

G12C C30U C66A: the yeast fitness is ≤ 0.5.

On to C24G U26A G41C A69C, for which the yeast fitness was ≤ 0.5.

As for C22U A40G A43U C46G C49G G58A C62U, the yeast fitness was ≤ 0.5.

Take C4G U13A A43G C46G G67A: the yeast fitness is ≤ 0.5.

As to A21G G44A A69C, the yeast fitness is ≤ 0.5.

As to A14U C27U U54C C55G, the yeast fitness is ≤ 0.5.

U7C G18A C22G C62U A70G: the yeast fitness was ≤ 0.5.

Take A42C G48C G67A: the yeast fitness turned out to be 0.574.

For the variant U2G C24A C29U G67U, the yeast fitness was ≤ 0.5.

For G18C C22U A57G, the yeast fitness is ≤ 0.5.

Regarding G6C G10C A69C, the yeast fitness is 0.589.

A14C U16A G41C G56A: the yeast fitness is ≤ 0.5.

Consider U8C A14G U16G G25A G68A, for which the yeast fitness is ≤ 0.5.

Regarding C5G A40C U47A C66U, the yeast fitness was ≤ 0.5.

Turning to C22A G41C A65C, the yeast fitness was ≤ 0.5.

For the variant A36U G63A, the yeast fitness was 0.672.

C30U A42G A43U U54A: the yeast fitness is ≤ 0.5.

Consider C5G U8A A20C C22G G51A C61G, for which the yeast fitness was ≤ 0.5.

A14G C24G C31U C55A G63C G67C: the yeast fitness was ≤ 0.5.

For the variant C11U C24U C30G A40G G41C C61U, the yeast fitness was ≤ 0.5.

With U2C C11G U26C A36U C55G A57C A65C, the yeast fitness is ≤ 0.5.

Turning to U2G G12C C49U, the yeast fitness was ≤ 0.5.

Turning to A14U G17C A36C, the yeast fitness was ≤ 0.5.

Take G6A U32A A45G C49G A65C: the yeast fitness was ≤ 0.5.

For the variant C5U C22A A45C, the yeast fitness turned out to be 0.564.

On to G12C C29G, for which the yeast fitness is 0.58.

With U2G A20G C33U G39A, the yeast fitness was ≤ 0.5.

Consider G9C U16G C66G, for which the yeast fitness was ≤ 0.5.

Take G10A C29G C33U G63A U64C: the yeast fitness is ≤ 0.5.

C27U G38A C66G: the yeast fitness is ≤ 0.5.

With C5G C34A C49U C60A C61A, the yeast fitness was ≤ 0.5.

As to C11U C29U C31A, the yeast fitness was ≤ 0.5.

As to G10A A21U U28A C33U C55A, the yeast fitness was ≤ 0.5.

In the case of C34G A37C A42G G44C G58A C60A, the yeast fitness was ≤ 0.5.

On to C24G A40C A42C, for which the yeast fitness is ≤ 0.5.

Take C22A C24A U26C C60G C61U: the yeast fitness was ≤ 0.5.

Consider A15G C30A C31G A40G G50A G56C, for which the yeast fitness was ≤ 0.5.

As for C33G C49A A69U, the yeast fitness was ≤ 0.5.

With G17C C34U C62U A70U, the yeast fitness is ≤ 0.5.

Turning to C11G A15U C22U A42G C61A, the yeast fitness was ≤ 0.5.

Take G10C A21C C30A U32C C60U G67C: the yeast fitness is ≤ 0.5.

As for A20G U32G A43C C55G C60U, the yeast fitness was ≤ 0.5.

For G9C G23A A45G C62U C66U, the yeast fitness is ≤ 0.5.

For the variant G6A C29U A37C, the yeast fitness was ≤ 0.5.

For the variant A42C C55G, the yeast fitness was determined as 0.612.

For C24G A36G U64C, the yeast fitness is ≤ 0.5.

In the case of C4A U16C G17A C55A, the yeast fitness is ≤ 0.5.

For U2A U3G G18A A20C C49U, the yeast fitness is ≤ 0.5.

For C4A G6A G51C C55G, the yeast fitness was ≤ 0.5.

C11G A36U A42G A43C C49U A57U A65C: the yeast fitness was ≤ 0.5.

Take C4A C5A G50C: the yeast fitness is ≤ 0.5.

In the case of A21C U35C A37U, the yeast fitness is ≤ 0.5.

Regarding C11U U19G G52A, the yeast fitness was 0.609.

Take G6C U35C U59C: the yeast fitness was ≤ 0.5.

Regarding U3C G56A A69C, the yeast fitness amounted to 0.802.

As for U8A A14C C49G G63C, the yeast fitness is ≤ 0.5.

In the case of A40U A43U C60U C62U C66U, the yeast fitness was ≤ 0.5.

For G9A A14G G23A G41C C61U A69C, the yeast fitness was ≤ 0.5.

As for U16A A37C G48C, the yeast fitness is 0.546.

For the variant C5U U19C G63C C66U, the yeast fitness is ≤ 0.5.

For U28A G48C G52A, the yeast fitness was ≤ 0.5.

G6A U59C C61A: the yeast fitness is ≤ 0.5.

On to G12U U54C, for which the yeast fitness amounted to 0.59.

Turning to C5G G10C C61A, the yeast fitness was ≤ 0.5.

Regarding U13C A14U A21C U47A, the yeast fitness was ≤ 0.5.

On to U3C A21G C29G, for which the yeast fitness was ≤ 0.5.

Turning to G10A C49A G50A, the yeast fitness was ≤ 0.5.

Consider U7C A40G C49G, for which the yeast fitness was ≤ 0.5.

In the case of C4G U59G, the yeast fitness is 0.653.

On to U2C C24U C29U C30A G68C A69U, for which the yeast fitness is ≤ 0.5.

In the case of U19A G25A A37U C49A C66U, the yeast fitness was ≤ 0.5.

These data come from the RNAGym collection of RNA variant scans (doi:10.1126/science.aae0568).
